# Measurements: PubChem BioAssay AID504467 (National Center for Advancing Translational Sciences (NCATS), 2011)
# About 7,700 (2.3%) of roughly 330,000 compounds were called active. The inconclusive results got no clear call from the source; some entries with a clear call stand among them for comparison. Calls come from the whole dose curve; as a rule, active = well fitted inhibition curve with a large enough effect; inconclusive = small, poorly fitted or top-dose-only effect, or effect the other way; inactive = flat fitted curve, though single readings scatter. Potencies beside an inconclusive call are fits to weak or partial responses and may not hold up.
# Assay: qHTS screen for small molecules that inhibit ELG1-dependent DNA repair in human embryonic kidney (HEK293T) cells expressing luciferase-tagged ELG1; note: nearly all actives have a fitted effect of over 55% in size
# Conditions: HEK293T ELG1-luciferase reporter, luminescence, 16 h, DNA damage induced by 5-fluorouridine; activity change, negative = inhibition: at 46.1 µM (top of the series)
# Method in brief: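 Luminescence from the luciferase reporter, measured 30 min after ONE-Glo reagent at room temperature, was the read-out. Beforehand, 2,000 cells per well were exposed for 16 hr at 37 °C to 5-fluorouridine together with compound or vehicle.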
# % is set by controls: 0 for no effect and ±100 for the full control effect; potency is the fitted concentration of half-maximal effect.
SMILES,Potency,"activity change, negative = inhibition"
O=C(CCCOc1ccc(Br)cc1)Nc1nnc(C2CC2)s1,inactive,
CC(=Nc1ccc(Br)cc1)c1sc2ccccc2c1O,"inconclusive: 2.59 µM [activator, partial curve]",
N#C/C(=C\c1c[nH]c2ccccc12)c1nnc2n1CCCCC2,inactive,
Cc1cc2cc3c(cc2nc1SCC(=O)Nc1nc(C)c(C)s1)OCO3,inactive,
COc1cc(CN(C)Cc2cccc3ccccc23)cc([N+](=O)[O-])c1O,inactive,
COc1cc(NC(=O)c2csc(-c3ccncc3)n2)cc(C(=O)Nc2cccc(C(F)(F)F)c2)c1,active: 5.17 µM,
C/C(Cc1ccccc1)=N\NC(=O)c1ccccn1,"inconclusive: 23.1 µM [activator, single point]",
Cc1cc(C)c(N2CCN(S(=O)(=O)N3CCCCCC3)CC2)c(C)c1,"inconclusive: 23.1 µM [inhibitor, single point]",
COc1ccc(CNS(=O)(=O)c2cc(-c3cc(C)no3)ccc2OC)cc1OC,inactive,
COc1ccc(S(=O)(=O)N2CCOC2CNC(=O)C(=O)NCCc2ccccc2OC)cc1C (centres undefined),"inconclusive: 18.3 µM [inhibitor, single point]",
CCN(Cc1nc2ccccc2c(=O)[nH]1)C(=O)c1cccc(S(=O)(=O)N2CCc3ccccc32)c1,"inconclusive: 35.5 µM [inhibitor, single point]",
Cc1ccc(S(=O)(=O)Nc2ccc(-c3cn4ccc(C)cc4n3)cc2)cc1,inactive,
CCOC(=O)c1nn(-c2ccc(F)cc2)c(=O)cc1OCC(=O)Nc1ccc(OCC)cc1,inactive,
COc1ccc(CN(C(=O)CN2C(=O)C(C)Oc3ccccc32)C2CCCC2)c(OC)c1 (centres undefined),"inconclusive: 7.31 µM [inhibitor, single point]",
Cc1nnc(SCc2ccc(F)cc2)n1NC/C=C/c1ccccc1,"inconclusive: 9.2 µM [inhibitor, partial curve, poor fit]",
Cc1ccc(S(=O)(=O)N2CCOC2CNC(=O)C(=O)NCCc2c[nH]c3ccccc23)cc1 (centres undefined),"inconclusive: 23.1 µM [inhibitor, partial curve]",
O=C(Cc1ccccc1)Nc1ccccc1N1CCOCC1,inactive,
CN(C)c1nc(OCCNC(=O)Nc2ccc(Cl)cc2)nc(N(C)C)n1,active: 7.3 µM,
CCN(CC)S(=O)(=O)c1ccc(Cl)c(NC(=O)c2cc(Cl)cc(Cl)c2)c1,"inconclusive: 29.1 µM [activator, partial curve, poor fit]",
O=C(CNC(=O)c1ccc(Br)o1)NCc1ccc(F)cc1,inactive,
COc1ccc(CCn2c(N3CCN(Cc4ccccc4)CC3)nc3c2c(=O)[nH]c(=O)n3C)cc1,"inconclusive: 20.6 µM [inhibitor, single point]",
C/C(=N\NC(=O)c1ccn(C)n1)c1cccc(NC(=O)c2ccncc2)c1,"inconclusive: 23.1 µM [inhibitor, single point]",
CCCCn1c(CN2CCN(c3ccc(F)cc3)CC2)nc2c1c(=O)n(C)c(=O)n2C,inactive,
O=C(NC(=S)NNC(=O)c1ccco1)c1ccc(F)cc1,inactive,
Cc1ccc(NC(=S)NNC(=O)c2c(Cl)c(C)nn2C)cc1,inactive,

SMILES,Potency,"activity change, negative = inhibition"
O=C(CS(=O)(=O)c1c[nH]c2ccccc12)N1CCCCCC1,inactive,
CCN(CC)S(=O)(=O)c1cccc(-c2nnc(SCC(=O)NCCC3=CCCCC3)n2N)c1,"inconclusive: 25.9 µM [inhibitor, single point]",
O=[N+]([O-])c1cc(C(F)(F)F)cc([N+](=O)[O-])c1NCCCN1CCOCC1,inactive,
Cc1cc(=O)[nH]c(SCC(=O)c2ccc(C(C)C)cc2)n1,"inconclusive: 16.4 µM [activator, single point]",
Cc1ccc(S(=O)(=O)N2CCOCC2)cc1NC(=O)COC(=O)CNC(=O)c1ccc(Cl)cc1Cl,"inconclusive: 25.9 µM [activator, partial curve, poor fit]",
CN1CCN(CC(=O)Nc2sc3c(c2C(=O)Nc2ccccc2)CCCC3)CC1,inactive,
COc1cccc(-n2c(SCC(=O)NC3CCS(=O)(=O)C3)nc3ccccc3c2=O)c1 (centres undefined),inactive,
CCCc1nnc(NC(=O)CCN2C(=O)c3ccccc3C2=O)s1,inactive,
O=C1Nc2ccc(NS(=O)(=O)c3cccs3)c3cccc1c23,"inconclusive: 31.6 µM [activator, single point]",
CCOC(=O)CNC(=O)/C=C/c1c(Cl)cccc1Cl,"inconclusive: 25.9 µM [activator, single point]",
CC(C)Cc1nnc(NC(=O)CSc2ccccn2)s1,"inconclusive: 16.4 µM [activator, single point]",
CN1C(=O)/C(=C/c2cccc(Cl)c2)Sc2ccc(C(=O)N3CCOCC3)cc21,"inconclusive: 29.1 µM [inhibitor, single point]",
COc1cc(/C=N/NC(=O)c2cccnc2)ccc1OCC(=O)N1CCOCC1,"inconclusive: 20.6 µM [activator, partial curve, poor fit]",
O=C(c1cc(-c2ccco2)nc2ccccc12)N(Cc1nnc(-c2ccc(Cl)cc2)o1)C1CC1,"inconclusive: 20.6 µM [inhibitor, single point]",
CNc1nc2cccnc2s1,"inconclusive: 20.6 µM [activator, partial curve, poor fit]",
Nc1ccc(-c2cnc(-c3ccc(N)cc3)nc2)cc1,"inconclusive: 1.3 µM [activator, partial curve]",
Nc1nc(-c2ccc(Cl)cc2)nn1C(=O)c1cccnc1,"inconclusive: 7.31 µM [activator, partial curve, poor fit]",
CCCCc1nnc(NC(=O)c2ccccc2OCc2c(C)noc2C)s1,"inconclusive: 32.6 µM [activator, single point]",
Cc1ccc(SCC(=O)c2cc(C)c(O)c(C)c2)cc1,"inconclusive: 18.3 µM [activator, single point]",
Cc1cc(Cn2nc(C(=O)NCc3cccc(Br)c3)cc2-c2ccccc2)on1,"inconclusive: 8.91 µM [inhibitor, single point]",
O=C(N/N=C/c1ccncc1)c1ccccc1OCc1ccc(Br)cc1,active: 7.31 µM,
O=C(O)CCC(=O)NNC(=O)CCC(=O)Nc1ccccc1,inactive,
CNc1ccccc1C(C)(C)c1cc(-c2ccc(F)cc2)no1,"inconclusive: 4.61 µM [inhibitor, partial curve]",
O=C(CCCC(=O)c1ccccc1)Nc1ccc(O)cc1,"inconclusive: 7.3 µM [inhibitor, partial curve]",
COc1ccc(-c2cc3ccccc3[nH]2)cc1,"inconclusive: 6.51 µM [activator, partial curve]",

# Exported tab-delimited: part of the list above
SMILES	Potency	activity change, negative = inhibition
O=[N+]([O-])c1cc(C(F)(F)F)cc([N+](=O)[O-])c1NCCCN1CCOCC1	inactive	
Cc1cc(=O)[nH]c(SCC(=O)c2ccc(C(C)C)cc2)n1	inconclusive: 16.4 µM [activator, single point]	
Cc1ccc(S(=O)(=O)N2CCOCC2)cc1NC(=O)COC(=O)CNC(=O)c1ccc(Cl)cc1Cl	inconclusive: 25.9 µM [activator, partial curve, poor fit]	
CN1CCN(CC(=O)Nc2sc3c(c2C(=O)Nc2ccccc2)CCCC3)CC1	inactive	
COc1cccc(-n2c(SCC(=O)NC3CCS(=O)(=O)C3)nc3ccccc3c2=O)c1 (centres undefined)	inactive	

# Following part.

SMILES,Potency,"activity change, negative = inhibition"
CC1Cc2ccccc2N1c1ncnc2nc[nH]c12 (centres undefined),inactive,
N#Cc1ccsc1NC(=O)CN1CCN(S(=O)(=O)c2ccccc2C(F)(F)F)CC1,"inconclusive: 23.1 µM [inhibitor, partial curve]",
CCOCCCNC(=O)CSc1ccccc1,"inconclusive: 29.1 µM [activator, single point]",
Cc1ccc(-c2csc(NC(=O)c3ccccc3F)c2C(=O)O)cc1,"inconclusive: 18.3 µM [activator, partial curve]",
COC(=O)c1ccc(C(=O)OC)c(NC(=O)CN2CCN(c3ccccc3OC)CC2)c1,"inconclusive: 14.6 µM [inhibitor, partial curve]",
CCOC(=O)N1CCN(C(=S)NC(=O)c2c(-c3c(Cl)cccc3Cl)noc2C)CC1,"inconclusive: 16.4 µM [inhibitor, single point]",
O=C(O)CNS(=O)(=O)Cc1ccccc1,inactive,
COc1ccc(OC)c(Nc2nc(-c3ccccc3O)nc3ccccc23)c1,"inconclusive: 3.66 µM [inhibitor, partial curve]",
CC(=O)Nc1ccc(OCC(O)Cn2nc(C)c(C(C)=O)c2C)cc1 (centres undefined),inactive,
O=C(CC(CC(=O)c1ccccc1)c1ccccc1)c1ccccc1,inactive,
C=CCn1c(SCc2nc3ccccc3[nH]2)nnc1-c1ccc(OC)cc1,"inconclusive: 11.6 µM [inhibitor, partial curve]",
Cc1ccc(-c2nc(NC(=O)c3nn(C)cc3[N+](=O)[O-])sc2C)cc1C,active: 9.2 µM,
CC(CCn1cccn1)NC(=O)CCc1nnc(C2CCCCC2)o1 (centres undefined),,inconclusive: 29.4% [activator]
Cc1nnc(NC(=O)C23CC4CC(CC(C4)C2)C3)s1,inactive,
Cc1ccccc1/C=C1\SC(=S)N(/N=C/c2cc([N+](=O)[O-])ccc2O)C1=O,"inconclusive: 14.6 µM [inhibitor, partial curve, poor fit]",
Cn1cc([N+](=O)[O-])c(C(=O)N(Cc2ccccc2)Cc2ccccc2)n1,inactive,
CC(NC(=O)COc1ccccc1-c1ccccc1)c1ccccc1 (centres undefined),inactive,
COc1cccc(CNC(=O)CN2C(=O)CC(c3ccccc3)=Nc3ccccc32)c1,"inconclusive: 20.6 µM [inhibitor, partial curve, poor fit]",
Cc1ccc(NC(=O)CSc2nn(-c3ccc(Cl)cc3)c(=S)s2)cc1S(=O)(=O)N(C)C,active: 14.6 µM,
NS(=O)(=O)c1cccc(NC(=O)CCCC2CCCCC2)c1,"inconclusive: 14.6 µM [activator, partial curve, poor fit]",
O=C(COc1coc(CN2CCN(c3ccccc3)CC2)cc1=O)Nc1cccc(F)c1,inactive,
COc1ccc(OC)c(S(=O)(=O)NCc2cccnc2)c1,inactive,
CCOC(=O)C1C(=O)NC(SC)=C(C#N)C1c1ccccc1F (centres undefined),inactive,
Cc1ccnc(NC(=O)c2ccc(Cl)c(NC(=O)C(C)Oc3ccccc3)c2)c1 (centres undefined),"inconclusive: 29.1 µM [inhibitor, single point]",
